Results on one substance are retold here after publication doi:10.1101/2025.05.20.655051.

These are yes or no findings as the source states them, for the method shown. In cells and extracts the contact can be indirect. Here binding means that the protein was enriched with, or labelled near, the bait; the list need not be complete. Where a sequence is shown, tags or fusion partners need not be part of it.

This assay addresses T1, VIPP1-GFP (Vesicle Inducing Protein in Plastids 1 tagged by GFP at its C-terminus) (Arabidopsis thaliana) (UniProt O80796).
T1 sequence: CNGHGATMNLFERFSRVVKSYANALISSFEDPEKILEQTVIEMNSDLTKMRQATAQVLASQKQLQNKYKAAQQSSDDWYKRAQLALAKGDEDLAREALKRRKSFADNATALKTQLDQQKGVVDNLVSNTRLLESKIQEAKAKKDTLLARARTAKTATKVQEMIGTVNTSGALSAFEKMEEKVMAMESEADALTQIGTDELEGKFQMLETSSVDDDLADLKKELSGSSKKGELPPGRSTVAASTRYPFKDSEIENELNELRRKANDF
The assay can be described thus: affinity purification with mass spectrometry.

PPR protein (At1g64430): the binding entry is reported as “binds”.
